According to article PMC4041447:
These are yes or no findings as the source states them, for the method shown. In cells and extracts the contact can be indirect. Some binding calls cover weakened binding; strength is not graded here.

By UniProt entry, the sequences of proteins in these tests, tags left out.
UniProt Q01167: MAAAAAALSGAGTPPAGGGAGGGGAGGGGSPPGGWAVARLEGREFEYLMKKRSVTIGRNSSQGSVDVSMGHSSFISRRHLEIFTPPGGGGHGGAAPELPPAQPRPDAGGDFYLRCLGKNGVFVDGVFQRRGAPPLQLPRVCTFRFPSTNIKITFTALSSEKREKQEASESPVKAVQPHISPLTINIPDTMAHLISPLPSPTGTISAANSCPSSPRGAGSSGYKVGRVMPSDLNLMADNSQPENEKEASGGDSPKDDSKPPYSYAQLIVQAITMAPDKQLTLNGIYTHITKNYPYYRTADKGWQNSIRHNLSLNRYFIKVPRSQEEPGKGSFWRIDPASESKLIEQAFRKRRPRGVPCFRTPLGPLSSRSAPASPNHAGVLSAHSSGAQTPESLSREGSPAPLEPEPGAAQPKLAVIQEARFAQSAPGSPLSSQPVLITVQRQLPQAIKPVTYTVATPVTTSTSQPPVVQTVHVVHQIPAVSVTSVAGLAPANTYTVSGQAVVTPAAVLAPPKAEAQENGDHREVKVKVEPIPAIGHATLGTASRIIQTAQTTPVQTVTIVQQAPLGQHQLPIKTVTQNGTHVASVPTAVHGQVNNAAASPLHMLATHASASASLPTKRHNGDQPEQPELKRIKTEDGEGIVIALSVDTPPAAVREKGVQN
UniProt Q76L83: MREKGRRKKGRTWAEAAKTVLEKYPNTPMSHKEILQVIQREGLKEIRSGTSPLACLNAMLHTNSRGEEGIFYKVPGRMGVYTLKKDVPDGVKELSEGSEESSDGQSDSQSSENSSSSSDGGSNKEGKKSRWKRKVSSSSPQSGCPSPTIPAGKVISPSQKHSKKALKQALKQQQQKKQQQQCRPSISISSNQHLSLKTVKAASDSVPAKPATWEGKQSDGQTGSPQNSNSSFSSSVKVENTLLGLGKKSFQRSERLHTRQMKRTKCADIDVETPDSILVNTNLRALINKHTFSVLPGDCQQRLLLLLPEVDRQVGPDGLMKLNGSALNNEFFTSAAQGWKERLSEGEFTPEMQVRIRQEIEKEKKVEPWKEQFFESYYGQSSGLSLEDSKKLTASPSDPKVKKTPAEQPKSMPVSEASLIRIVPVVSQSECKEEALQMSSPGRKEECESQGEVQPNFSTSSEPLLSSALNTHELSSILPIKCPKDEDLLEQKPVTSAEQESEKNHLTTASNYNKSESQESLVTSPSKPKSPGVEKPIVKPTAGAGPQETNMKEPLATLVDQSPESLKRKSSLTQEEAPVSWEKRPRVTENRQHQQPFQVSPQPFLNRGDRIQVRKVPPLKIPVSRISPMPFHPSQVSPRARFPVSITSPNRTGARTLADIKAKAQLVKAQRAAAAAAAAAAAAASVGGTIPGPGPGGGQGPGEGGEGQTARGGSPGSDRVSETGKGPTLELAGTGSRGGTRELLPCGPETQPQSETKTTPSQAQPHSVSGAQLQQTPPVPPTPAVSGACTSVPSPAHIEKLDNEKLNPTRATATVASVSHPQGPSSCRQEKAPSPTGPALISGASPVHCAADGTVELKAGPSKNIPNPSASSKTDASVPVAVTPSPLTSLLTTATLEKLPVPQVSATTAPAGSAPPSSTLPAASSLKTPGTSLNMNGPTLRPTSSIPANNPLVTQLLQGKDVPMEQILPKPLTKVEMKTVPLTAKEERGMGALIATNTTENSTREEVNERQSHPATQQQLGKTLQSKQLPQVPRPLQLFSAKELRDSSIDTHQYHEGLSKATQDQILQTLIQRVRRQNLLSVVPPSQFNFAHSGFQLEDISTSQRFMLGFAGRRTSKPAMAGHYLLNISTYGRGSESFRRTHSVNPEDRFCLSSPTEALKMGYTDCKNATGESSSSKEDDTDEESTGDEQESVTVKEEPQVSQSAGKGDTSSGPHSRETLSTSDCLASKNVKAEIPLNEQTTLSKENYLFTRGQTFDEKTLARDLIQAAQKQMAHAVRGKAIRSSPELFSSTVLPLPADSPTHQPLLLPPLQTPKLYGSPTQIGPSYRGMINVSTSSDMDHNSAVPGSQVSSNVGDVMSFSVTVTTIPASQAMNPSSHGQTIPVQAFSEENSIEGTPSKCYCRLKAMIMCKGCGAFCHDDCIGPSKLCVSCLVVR
UniProt Q13547: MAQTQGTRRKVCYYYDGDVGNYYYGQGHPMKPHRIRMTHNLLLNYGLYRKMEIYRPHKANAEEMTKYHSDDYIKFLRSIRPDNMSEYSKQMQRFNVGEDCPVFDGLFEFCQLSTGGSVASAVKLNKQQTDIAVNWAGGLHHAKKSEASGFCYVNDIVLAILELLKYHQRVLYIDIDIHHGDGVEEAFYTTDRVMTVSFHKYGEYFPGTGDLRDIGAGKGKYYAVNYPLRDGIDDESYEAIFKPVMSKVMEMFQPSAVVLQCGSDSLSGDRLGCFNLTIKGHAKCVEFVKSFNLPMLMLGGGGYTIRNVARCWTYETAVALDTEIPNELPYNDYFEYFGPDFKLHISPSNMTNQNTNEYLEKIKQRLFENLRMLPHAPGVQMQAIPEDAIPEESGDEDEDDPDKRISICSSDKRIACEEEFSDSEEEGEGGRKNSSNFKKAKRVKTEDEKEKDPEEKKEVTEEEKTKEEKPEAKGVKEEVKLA

Target: Flag-tagged FOXK2 (FOXK2–HF) (UniProt Q01167)
Assay: co-IP; anti-Flag (FOXK2) IP from U2OS–FOXK2–HF cells; endogenous partners detected by immunoblotting

Substance | binding
endogenous ASXL2 (from UniProt Q76L83 1-1435) | binds
endogenous HDAC1 (from UniProt Q13547 1-482) (enzyme) | binds
